Reference: PubChem BioAssay AID493014 (National Center for Advancing Translational Sciences (NCATS), 2011)
This is one part of the list. These are further read-outs of the screen, such as a control signal, another cell line or another target. No call is given for them. The list favours compounds with an active or inconclusive main result. Words in brackets tell the shape of the fitted curve; partial curves, single points and poor fits give uncertain potencies.

Assay: qHTS Assay to Find Inhibitors of Chronic Active B-Cell Receptor Signaling
Details: ABC-DLBCL IkBa-CBG/CBR reporter, luminescence ratio (green luciferase fused to IkBa over red control in TMD8 lymphoma cells), 4 h
In short: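 Concentration-response series (up to 46 uM) were applied to TMD8 dual-reporter cells for 4 h at 37C with doxycycline. Green/red ratio, after filter-overlap correction, defined %Activity; red signal alone was normalised to basal cells and zero luminescence.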

[1] = measured here: CBR red luminescence, cell number
[2] = measured here: IkBa-CBG green luminescence

SMILES | AC50 [1] | AC50 [2]
C(=N\n1cnc2ccccc21)/c1cccnc1 | 0.00517 µM [rising, full curve, poor fit] | 
O=C(NNS(=O)(=O)c1ccc(F)cc1)c1ccc2c(c1)OCO2 | 11.2 µM [falling, single point] | 
COC(=O)C(Cc1ccc(O)cc1)NC(=O)CCNC(=O)c1ccco1 (stereo not drawn) | 2.82 µM [falling, partial curve, poor fit] | 
COc1ccc(Cl)c(NC(=O)Cn2nnc(-c3ccccc3N)n2)c1 | 10 µM [falling, partial curve, poor fit] | 
COc1ccc(C(=O)Nc2ccccc2C(=O)Nc2ccncc2)cc1 | 14.1 µM [falling, partial curve] | 
Cc1ccccc1CNC(=O)Cn1ccc2cc(S(=O)(=O)N3CCCCCC3)ccc21 | 25.1 µM [falling, single point] | 
O=C(c1ccc2c(c1)OCO2)N(CC1CCCO1)C1(C(=O)NC2CCCCC2)CCCCC1 (stereo not drawn) | 29.1 µM [falling, single point] | 25.9 µM [rising, partial curve, poor fit]
CCCCCCCOc1ccc(C2(C)NC(=O)NC2=O)cc1 (stereo not drawn) | 35.5 µM [rising, single point] | 
O=C(Cc1ccc(Cl)cc1)NCC(c1cccs1)S(=O)(=O)c1ccc(F)cc1 (stereo not drawn) | 12.6 µM [falling, single point] | 
COc1ccc(OC)c(C(=O)CN2CCN(S(=O)(=O)c3ccc(Br)cc3)CC2)c1 | 18.4 µM [rising, partial curve] | 20.6 µM [falling, single point]
Cc1cc(C)nc(Nc2n[nH]c(-c3ccccc3Br)n2)n1 | 0.366 µM [falling, full curve, poor fit] | 
COC(=O)c1ccc(N2CCCCC2)c(N)c1 | 10 µM [falling, partial curve, poor fit] | 
CC(C)c1ccc(NC(=O)N2CCc3ccccc3C2)cc1 | 1.41 µM [rising, partial curve] | 
Cc1cc(C)n(CCc2nc(-c3ccc(C)o3)cs2)n1 | 29.1 µM [falling, partial curve, poor fit] | 
O=c1[nH]c(CSc2nc3ccccc3o2)nc2c1cnn2-c1ccccc1 | 3.55 µM [rising, partial curve, poor fit] | 
CNS(=O)(=O)c1ccc2nc(NC(=O)/C=C/c3ccco3)sc2c1 | 0.708 µM [rising, full curve, poor fit] | 
COC(=O)c1cc(C)ccc1OCc1ccc([N+](=O)[O-])cc1 | 35.5 µM [rising, partial curve, poor fit] | 
Cc1nc(CC(=O)Nc2nc(C(C)(C)C)cs2)cs1 | 35.5 µM [falling, single point] | 
C#CCOCCOCCOCCNc1nc(N2CCN(C(=O)[C@H](C(C)C)n3cc(CCO)nn3)CC2)nc(N2CCN(C(=O)[C@H]([C@@H](C)CC)n3cc(CCCN=C(N)N)nn3)CC2)n1 | 0.231 µM [rising, full curve, poor fit] | 16.4 µM [falling, partial curve]
Cc1ccc(S(=O)(=O)NN2C(=O)/C(=C/c3cccc(F)c3)SC2=S)cc1 | 20 µM [falling, partial curve, poor fit] | 
O=C(Cc1ccc(F)cc1)Nc1ccc(S(=O)(=O)N2CCCCC2)cc1 | 10 µM [rising, partial curve, poor fit] | 

No new results follow: an excerpt of the list.
SMILES | AC50 [1] | AC50 [2]
COC(=O)c1cc(C)ccc1OCc1ccc([N+](=O)[O-])cc1 | 35.5 µM [rising, partial curve, poor fit] | 
Cc1nc(CC(=O)Nc2nc(C(C)(C)C)cs2)cs1 | 35.5 µM [falling, single point] | 
C#CCOCCOCCOCCNc1nc(N2CCN(C(=O)[C@H](C(C)C)n3cc(CCO)nn3)CC2)nc(N2CCN(C(=O)[C@H]([C@@H](C)CC)n3cc(CCCN=C(N)N)nn3)CC2)n1 | 0.231 µM [rising, full curve, poor fit] | 16.4 µM [falling, partial curve]
Cc1ccc(S(=O)(=O)NN2C(=O)/C(=C/c3cccc(F)c3)SC2=S)cc1 | 20 µM [falling, partial curve, poor fit] | 

Carrying on.

SMILES | AC50 [1] | AC50 [2]
CC(=O)Nc1c(C)nn(-c2ccc([N+](=O)[O-])cc2)c1C | 12.6 µM [rising, partial curve] | 
CC(=O)c1ccc(NC(=O)C(C)OC(=O)c2ccc(NS(=O)(=O)c3ccc(F)c(F)c3)cc2)cc1 (stereo not drawn) | 25.9 µM [falling, single point] | 
O=S(=O)(Nc1ccc(F)cc1Cl)c1ccc(-c2cnc(C3CC3)o2)cc1 | 17.8 µM [rising, single point] | 15.8 µM [falling, single point]
COc1ccc(-n2nc([N+](=O)[O-])c(=NCCCN3CCCC3=O)n2O)cc1 | 35.5 µM [rising, single point] | 
COc1ccc(-n2cccc2C=O)cc1 | 23.1 µM [rising, partial curve] | 
CCOc1ccc(CCNS(=O)(=O)c2cccc3nsnc23)cc1OCC | 0.291 µM [rising, partial curve, poor fit] | 
N#CCSc1ccc(-c2nc3ccccc3[nH]2)cn1 | 15.8 µM [falling, partial curve, poor fit] | 
CCOC(=O)c1cc2ccc3ccccc3c2s1 | 16.4 µM [rising, partial curve] | 
O=C(NC(=S)Nc1cccc([N+](=O)[O-])c1)C1CCCC1 | 12.6 µM [falling, partial curve, poor fit] | 
CCOC(=O)NC(=S)Nc1ccc(C(C)(C)C)cc1 | 22.4 µM [rising, partial curve, poor fit] | 
c1csc(-c2cnc3n2CCCC3)c1 | 6.31 µM [rising, single point] | 
C/C(=N\NC(=O)c1ccccc1C)c1ccc(NC(=O)c2cccs2)cc1 | 8.91 µM [falling, partial curve] | 
Nc1nc(NC(=O)c2ccc(Cl)cc2)nn1-c1ccccc1 | 23.1 µM [falling, single point] | 
COc1ccc(NC(=O)COc2coc(CN3CCc4ccccc43)cc2=O)cc1 | 0.461 µM [falling, full curve, poor fit] | 
O=C(/C=C/c1ccco1)Nc1ccc(N2CCCC2)cc1 | 0.0651 µM [falling, full curve, poor fit] | 
COC(=O)N1C(=O)[C@](CC(C)C)(c2ccccc2)N1C(=O)OC | 12.6 µM [falling, single point] | 
Cc1nnc(SCC(=O)c2ccc(Br)cc2)s1 | 14.1 µM [falling, partial curve, poor fit] | 
O=C(Nc1nc2ccc(S(=O)(=O)N3CCCCC3)cc2s1)c1ccncc1 | 0.82 µM [rising, full curve, poor fit] | 
Cc1ccc(/C=C2/SC(=S)N(CCCC(=O)Nc3ccc(O)cc3)C2=O)cc1 | 2.24 µM [falling, partial curve] | 
O=C1/C(=C/c2cccs2)SC(=S)N1c1cccc(O)c1 | 2.51 µM [rising, partial curve, poor fit] | 
CCOC(=O)COc1ccc(Br)cc1/C=C\c1[nH]c(=O)[nH]c(=O)c1[N+](=O)[O-] | 25.9 µM [falling, partial curve, poor fit] | 

SMILES | AC50 [1] | AC50 [2]
O=S(=O)(Nc1ncccn1)c1ccc(Cl)cc1 | 0.398 µM [rising, partial curve, poor fit] | 
CC1CCCC(NC(=O)CCn2c(=S)oc3ccccc32)C1C (stereo not drawn) | 3.55 µM [rising, partial curve, poor fit] | 
COc1ccccc1OCC(=O)Nc1nc(C)c(C)s1 | 12.6 µM [falling, single point] | 
CCOC(=O)C1CCN(S(=O)(=O)c2ccc(-c3nc4ccccc4s3)s2)CC1 | 3.98 µM [rising, full curve, poor fit] | 
O=C(CSc1cn(CCNC(=O)c2ccc3ccccc3c2)c2ccccc12)NCc1ccco1 | 23.1 µM [falling, single point] | 
O=C(O)c1ccc(/C=N/Nc2ccc(C(F)(F)F)cn2)cc1 | 4.47 µM [falling, partial curve, poor fit] | 
CC(Nc1ccc2c(c1)OCCO2)C(=O)N1CCc2ccccc21 (stereo not drawn) | 0.794 µM [falling, full curve, poor fit] | 
O=C(Nc1ccc(Cl)cc1)c1cc(S(=O)(=O)N2CCc3ccccc32)ccc1F | 8.91 µM [falling, partial curve] | 
O=C(c1cccs1)N1N=C(c2ccccc2)CC1c1ccccc1 (stereo not drawn) | 20.6 µM [falling, single point] | 20.6 µM [rising, partial curve, poor fit]
CCN(CC)c1ccc(/C=N/N=C(N)N)c(O)c1 | 11.2 µM [rising, partial curve, poor fit] | 15.8 µM [falling, partial curve]
CCOc1cc(CNC2CCCC2)cc(Cl)c1OCc1ccccc1 | 35.5 µM [falling, single point] | 
CN(C)c1ccc(/C=N/NC(=O)c2ccccc2Cl)cc1 | 1.84 µM [falling, partial curve] | 
O=C(Nc1cccc2c1N(C(=O)c1ccco1)CCC2)c1ccco1 | 35.5 µM [rising, single point] | 
Cc1ccc(CN2C(=O)/C(=C3\SC(N4CCOCC4)=NC3=O)c3cc(Br)ccc32)cc1 | 12.6 µM [rising, partial curve, poor fit] | 
O=C(N/N=C/c1ccc(O)cc1)c1cc(-c2ccc3c(c2)OCO3)n[nH]1 | 2.06 µM [falling, partial curve, poor fit] | 
Clc1ccc(-c2onc3c2CCCC3)cc1 | 3.66 µM [rising, full curve] | 
O=C(Nc1ccc2c(c1)CCC2)c1ccc(Cl)nc1 | 0.0891 µM [rising, full curve, poor fit] | 8.91 µM [rising, partial curve, poor fit]
O=C(NCCN1C(=O)S/C(=C\c2ccc(OC(F)F)cc2)C1=O)c1cnccn1 |  | 23.1 µM [falling, single point]
O=C(/C=C/c1ccccc1)NCc1ccco1 | 10 µM [falling, partial curve, poor fit] | 
